# Experimental data: US20140227291A1
# No constants are given. Whether binding was seen depends on the method and setting. Some binding calls cover weakened binding; strength is not graded here.
# B1: murine monoclonal antibody m4C9 (antibody, V domains shown)
# VH: QVQLQQPGAELVKPGASVKLSCKAPGYTFTSYWMHWVKQRPGQGLEWIGRIDPKSGDTKYTEKFKSKATLTVDKPSSTAYMQLSSLTSEDSAVYYCTTMSKLSGTHAWFAYWGQGTLVTVSA
# VL: DIKMTQSPSSMYASLGERVTITCKASQDINSYLTWFQQKPGKSPKTLIYRANRLVDGVPSRFSGSGSGQDYSLTISSLEYEDMGIYYCLQYDEFPLTFGAGTKLELK
# Target: Abeta(20-42) globulomer (human)
# Experiment: dot blot: antigen dilution series dotted on nitrocellulose, antibody 0.2 ug/ml, anti-mouse-IgG-POD detection
binder,measurement,value
B1,binding,binds
